Data as given in PubChem BioAssay AID1671195 (Yale University, 2021)
Shown is one part, drawn at random, of about 22,000 reagents. Of all reagents, about 1,510 (6.9%) got an active call. 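Active includes knockdowns raising or lowering LDL uptake; positive z-scores mean more uptake, negative mean less.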 No sequences are given here.

Purpose: 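Genes whose knockdown alters LDL uptake in liver cancer cells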 (primary screen)
Cells: human Huh7 hepatoma cells
Reagent: siRNA pool against human genes, 18 nM
Timing: about 2 to 2.5 days of knockdown, then 8 h LDL uptake
Treatment: DiI-labelled LDL at 30 µg/ml for 8 h, in lipoprotein-deficient serum medium
Detection: 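Fluorescent LDL signal imaged in cells, scaled to the plate median, robust z-score for each replicate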
Direction: robust z-score: higher = more LDL uptake after knockdown
Rule for the call: 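Active when two or more replicates show a robust z-score above 2 or below -2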

| Gene | robust z-score, replicate 1 | robust z-score, replicate 2 | robust z-score, replicate 3 | Outcome |
| --- | --- | --- | --- | --- |
| TIFA | 0.59 | -0.437 | -0.262 | inactive |
| TPT1P9 | 3.3 | 2.72 | 2.72 | active |
| IRAK4 | 0.131 | -0.439 | -0.876 | inactive |
| INCENP | 0.621 | 0.646 | 0.343 | inactive |
| PCDHGB5 | -1.09 | -1.14 | -0.695 | inactive |
| ABCA12 | 0.128 | 0.948 | 0.672 | inactive |
| RPF1 | -0.325 | -0.0964 | -0.321 | inactive |
| NOL8 | 0.572 | 1.1 | -0.542 | inactive |
| ERMARD | -0.353 | 2.7 | 2.78 | active |
| U2AF1 | -0.0244 | -0.141 | -0.322 | inactive |
| OR2AK2 | 1.87 | 1.52 | 2 | inactive |
| FLJ44385 (retired record) | 1.33 | 1.23 | 0.998 | inactive |
| TFPI2 | -0.51 | 0.431 | -0.121 | inactive |
| CNOT10 | -0.531 | 0.898 | -0.431 | inactive |
| LOC400263 (retired record) | -0.851 | -0.737 | -0.838 | inactive |
| CRLF1 | 0.74 | 0.0503 | -0.414 | inactive |
| MIS12 | 1.07 | 0.895 | 0.621 | inactive |
| PIWIL4 | 1.25 | 0.892 | 1.3 | inactive |
| C10orf88B | 1.24 | 0.284 | 0.555 | inactive |
| SART3 | -1.11 | 0.154 | -2.21 | inactive |
| SCN4A | 0.0433 | 0.415 | 0.298 | inactive |
| RPL7AP63 | -0.608 | -2.43 | -0.839 | inactive |
| CKAP2 | 3.59 | 4.48 | 1.76 | active |

Entries listed above called active:
| Gene | robust z-score, replicate 1 | robust z-score, replicate 2 | robust z-score, replicate 3 | Outcome |
| --- | --- | --- | --- | --- |
| TPT1P9 | 3.3 | 2.72 | 2.72 | active |
| ERMARD | -0.353 | 2.7 | 2.78 | active |
| CKAP2 | 3.59 | 4.48 | 1.76 | active |

The list goes on:
| Gene | robust z-score, replicate 1 | robust z-score, replicate 2 | robust z-score, replicate 3 | Outcome |
| --- | --- | --- | --- | --- |
| FAM186B | -0.961 | -0.355 | -0.706 | inactive |
| DHDH | 1.28 | 1.33 | 1.45 | inactive |
| LOC441339 (retired record) | -1.77 | -2.45 | -2.3 | active |
| MUC20 | 0.233 | -0.0954 | -0.337 | inactive |
| HOXC9 | -1.44 | -1.62 | -1.35 | inactive |
| SALL3 | 0.818 | 0.263 | 0.34 | inactive |
| LOC390801 (retired record) | 0.643 | 0.595 | 0.688 | inactive |
| RFPL4A | -1.59 | -1.57 | -1.35 | inactive |
| LAMA1 | 0.0657 | 0.267 | 0.296 | inactive |
| UBLCP1 | 0.0553 | 2.05 | 1.49 | inactive |
| C15orf61 | 1.22 | 3.26 | 1.94 | inactive |
| BSND | -0.605 | 0.008 | -0.509 | inactive |
| FBXL15 | -0.554 | -0.231 | -0.316 | inactive |
| KCNJ1 | 0.419 | 0.675 | 0.526 | inactive |
| SIN3A | 0.356 | 0.18 | -0.579 | inactive |
| PDE1B | 0.254 | -1.11 | -0.695 | inactive |
| ASB1 | -0.153 | 0.432 | 1.05 | inactive |
| SWI5 | 2.24 | 2.4 | 2.65 | active |
| ACSM2A | 0.874 | -0.0953 | -0.642 | inactive |
| GFOD3P | -0.421 | -0.163 | -0.317 | inactive |
| SNRNP35 | 0.256 | 0.126 | 0.698 | inactive |
| LOC387824 (retired record) | -0.0342 | 0.185 | 0.226 | inactive |
| TMEM121 | 0.288 | -0.434 | 0.231 | inactive |
